Results are given in words; binding and its absence hold for the method and conditions named. In cells and extracts the contact can be indirect. Some results given as binding are weak or reduced against the parent protein; the word gives no strength. One block for each molecule: values may come before it.
What was measured:
[1] = molecular target: T1, TP73 (human (endogenous in HepG2)) (UniProt O15350); test: co-IP; 200 uL HepG2 nuclear extract (extraction buffer 25 mM Tris-HCl pH 7.4, 300 mM NaCl, 1 mM DTT, 1% triton-100, 0.1% SDS) with 5 ug antibody against TP73, TBP, GTF3C2 or GTF3C3; protein A/G agarose; washed with modified RIPA buffer (300 mM NaCl); western blot
T1 sequence: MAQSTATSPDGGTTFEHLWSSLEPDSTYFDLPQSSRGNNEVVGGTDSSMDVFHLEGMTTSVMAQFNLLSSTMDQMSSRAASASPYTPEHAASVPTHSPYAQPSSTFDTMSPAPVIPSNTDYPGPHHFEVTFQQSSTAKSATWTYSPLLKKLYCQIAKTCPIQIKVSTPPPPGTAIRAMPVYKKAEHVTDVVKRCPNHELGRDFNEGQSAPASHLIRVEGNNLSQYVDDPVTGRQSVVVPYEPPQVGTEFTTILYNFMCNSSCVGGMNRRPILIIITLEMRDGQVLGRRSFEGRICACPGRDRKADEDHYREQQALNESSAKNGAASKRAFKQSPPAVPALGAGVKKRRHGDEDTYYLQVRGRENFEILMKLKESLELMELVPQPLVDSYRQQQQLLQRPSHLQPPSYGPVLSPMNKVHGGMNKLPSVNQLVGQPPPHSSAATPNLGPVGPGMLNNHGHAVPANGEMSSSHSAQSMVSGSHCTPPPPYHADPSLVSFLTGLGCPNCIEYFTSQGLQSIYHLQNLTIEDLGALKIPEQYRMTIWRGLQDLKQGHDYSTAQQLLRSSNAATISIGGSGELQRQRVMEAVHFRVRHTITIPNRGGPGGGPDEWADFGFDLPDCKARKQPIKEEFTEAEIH

The chains behind the UniProt entries cited, without tags or fusion partners.
UniProt P20226: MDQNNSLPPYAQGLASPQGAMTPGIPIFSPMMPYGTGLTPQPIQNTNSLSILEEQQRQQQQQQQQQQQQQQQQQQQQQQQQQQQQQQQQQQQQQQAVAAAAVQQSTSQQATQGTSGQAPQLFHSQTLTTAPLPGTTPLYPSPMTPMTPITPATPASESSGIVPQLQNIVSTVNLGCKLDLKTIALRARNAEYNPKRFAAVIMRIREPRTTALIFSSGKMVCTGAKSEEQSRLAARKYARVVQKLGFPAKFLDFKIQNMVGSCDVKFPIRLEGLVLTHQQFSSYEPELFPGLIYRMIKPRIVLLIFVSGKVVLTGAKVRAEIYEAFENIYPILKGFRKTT

[2] = molecular target: T2, BRF1 (human (endogenous in HepG2)) (UniProt Q92994); test: co-IP; HepG2 cells expressing TP73 shRNA or control shRNA; antibodies against TBP, BRF1 and BRF2; western blot
T2 sequence: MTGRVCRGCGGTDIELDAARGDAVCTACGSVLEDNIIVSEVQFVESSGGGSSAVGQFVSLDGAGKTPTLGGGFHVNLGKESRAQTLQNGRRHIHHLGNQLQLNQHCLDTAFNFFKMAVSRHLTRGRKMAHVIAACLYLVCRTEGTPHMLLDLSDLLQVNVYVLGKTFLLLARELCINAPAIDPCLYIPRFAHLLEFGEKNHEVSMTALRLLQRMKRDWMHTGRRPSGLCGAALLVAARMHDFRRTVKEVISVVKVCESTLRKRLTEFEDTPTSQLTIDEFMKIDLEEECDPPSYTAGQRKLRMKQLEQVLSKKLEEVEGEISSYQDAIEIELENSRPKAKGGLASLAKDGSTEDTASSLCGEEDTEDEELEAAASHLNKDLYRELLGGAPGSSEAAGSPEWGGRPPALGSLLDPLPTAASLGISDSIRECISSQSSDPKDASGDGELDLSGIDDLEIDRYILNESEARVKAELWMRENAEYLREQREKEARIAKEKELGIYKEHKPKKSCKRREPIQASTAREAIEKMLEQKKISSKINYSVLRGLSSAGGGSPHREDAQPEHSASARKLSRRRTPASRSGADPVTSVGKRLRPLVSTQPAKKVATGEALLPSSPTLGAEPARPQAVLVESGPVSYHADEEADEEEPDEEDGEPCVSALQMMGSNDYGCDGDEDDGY

[3] = molecular target: TBP (human (endogenous in HepG2)) (UniProt P20226); test: as above
[4] = molecular target: T3, GTF3C2 (human (endogenous in HepG2)) (UniProt Q8WUA4); test: co-IP; 200 uL HepG2 nuclear extract (extraction buffer 25 mM Tris-HCl pH 7.4, 300 mM NaCl, 1 mM DTT, 1% triton-100, 0.1% SDS) with 5 ug antibody against TP73, TBP, GTF3C2 or GTF3C3; protein A/G agarose; washed with modified RIPA buffer (300 mM NaCl); western blot
T3 sequence: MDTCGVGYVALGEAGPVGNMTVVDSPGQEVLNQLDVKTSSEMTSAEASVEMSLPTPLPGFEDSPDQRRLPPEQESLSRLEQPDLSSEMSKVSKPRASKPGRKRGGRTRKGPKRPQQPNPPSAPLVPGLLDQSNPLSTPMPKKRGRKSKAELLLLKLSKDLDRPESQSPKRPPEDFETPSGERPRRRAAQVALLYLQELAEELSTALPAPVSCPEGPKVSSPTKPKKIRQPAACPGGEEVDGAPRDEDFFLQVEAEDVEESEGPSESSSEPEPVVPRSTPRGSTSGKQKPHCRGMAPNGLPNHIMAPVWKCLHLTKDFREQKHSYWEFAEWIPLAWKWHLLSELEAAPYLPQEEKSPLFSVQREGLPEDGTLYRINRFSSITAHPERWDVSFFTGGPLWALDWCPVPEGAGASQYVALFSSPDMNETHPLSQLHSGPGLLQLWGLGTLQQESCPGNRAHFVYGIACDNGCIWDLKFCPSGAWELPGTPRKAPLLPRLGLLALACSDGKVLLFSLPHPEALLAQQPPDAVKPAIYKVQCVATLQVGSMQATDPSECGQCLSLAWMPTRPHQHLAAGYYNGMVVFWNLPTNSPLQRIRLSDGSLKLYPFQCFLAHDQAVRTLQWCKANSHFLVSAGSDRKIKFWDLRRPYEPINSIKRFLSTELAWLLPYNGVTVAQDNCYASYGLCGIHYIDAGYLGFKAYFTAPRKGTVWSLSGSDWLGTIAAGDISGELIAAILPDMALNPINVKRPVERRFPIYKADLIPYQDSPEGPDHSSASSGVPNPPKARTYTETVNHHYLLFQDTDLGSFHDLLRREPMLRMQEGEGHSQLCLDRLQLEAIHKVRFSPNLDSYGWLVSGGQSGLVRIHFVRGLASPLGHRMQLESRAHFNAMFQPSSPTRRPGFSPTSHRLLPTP

[5] = molecular target: T4, GTF3C3 (human (endogenous in HepG2)) (UniProt Q9Y5Q9); test: as above
T4 sequence: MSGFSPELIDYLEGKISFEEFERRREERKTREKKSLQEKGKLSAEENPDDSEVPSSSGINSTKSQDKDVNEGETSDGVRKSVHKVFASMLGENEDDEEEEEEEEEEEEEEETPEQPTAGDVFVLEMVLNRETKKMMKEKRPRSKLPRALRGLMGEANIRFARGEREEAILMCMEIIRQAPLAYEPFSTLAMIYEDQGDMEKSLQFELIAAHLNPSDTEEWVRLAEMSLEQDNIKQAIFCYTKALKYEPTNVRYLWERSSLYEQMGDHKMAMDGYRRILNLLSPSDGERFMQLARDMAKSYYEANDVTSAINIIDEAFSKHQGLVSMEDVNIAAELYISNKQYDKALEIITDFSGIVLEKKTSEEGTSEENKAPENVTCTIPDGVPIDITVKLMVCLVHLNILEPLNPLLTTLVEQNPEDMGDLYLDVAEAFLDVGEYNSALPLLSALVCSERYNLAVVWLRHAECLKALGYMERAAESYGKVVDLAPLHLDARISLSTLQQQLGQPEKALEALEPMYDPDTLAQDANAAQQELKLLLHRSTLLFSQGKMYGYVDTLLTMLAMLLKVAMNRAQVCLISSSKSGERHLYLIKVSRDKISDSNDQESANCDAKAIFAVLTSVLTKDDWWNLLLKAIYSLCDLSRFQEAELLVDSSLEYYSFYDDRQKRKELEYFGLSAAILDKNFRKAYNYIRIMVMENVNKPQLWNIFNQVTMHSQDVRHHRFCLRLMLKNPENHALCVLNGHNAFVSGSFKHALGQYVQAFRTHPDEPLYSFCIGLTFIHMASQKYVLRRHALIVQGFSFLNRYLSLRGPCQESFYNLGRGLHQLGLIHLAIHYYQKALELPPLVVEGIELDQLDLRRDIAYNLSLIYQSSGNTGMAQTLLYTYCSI

[6] = molecular target: TBP (human (endogenous in HepG2)) (UniProt P20226); test: as above

binding [1]: binds
binding [2]: binds
Molecule: TBP (from UniProt P20226 1-339)

binding [3]: binds
B1: BRF1 (protein, UniProt Q92994 1-677)
chain: T2 sequence

binding [4]: binds
binding [5]: binds
binding [6]: binds
B2: TP73 (protein, UniProt O15350 1-636)
chain: T1 sequence

— paper PMC9851613
